Out of some 330,000 compounds screened, about 7,700 (2.3%) were called active. The inconclusive results got no clear call from the source; some entries with a clear call stand among them for comparison. Calls follow the shape of the dose curve; as a rule, active = well fitted inhibition curve with a large enough effect; inconclusive = small, poorly fitted or top-dose-only effect, or effect the other way; inactive = flat fitted curve, though single readings scatter. Potencies of inconclusive entries are doubtful fits and often do not repeat.
Experiment: qHTS screen for small molecules that inhibit ELG1-dependent DNA repair in human embryonic kidney (HEK293T) cells expressing luciferase-tagged ELG1; also: nearly all actives have a fitted effect of over 55% in size
Conditions: HEK293T ELG1-luciferase reporter, luminescence, 16 h, DNA damage induced by 5-fluorouridine; activity change, negative = inhibition: at 46.1 µM (top of the series)
In short: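 Step one: seed 2,000 cells per well. Step two: pin-transfer compound or DMSO alongside 5-fluorouridine. Step three: incubate 16 hr, 37 °C, 5% CO2. Step four: add ONE-Glo, wait 30 min, read luminescence.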
% is scaled to controls: 0 for no effect and ±100 for the full control effect; potency is read from the fitted curve at half-maximal effect.

Compound	Potency	activity change, negative = inhibition
C/C(=N\NC(=O)c1cc(C)nc2ccccc12)c1cccs1	inactive	–
Cc1ccc(-n2ncc3c2CCCC3NC(=O)c2csnn2)cc1C (stereo not given)	inactive	–
Cc1[nH]n(-c2ccccc2)c(=O)c1N=Nc1cccc(Cl)c1	inconclusive: 5.8 µM [activator, full curve]	–
Cc1ccc(NC(=O)COC(=O)CN2C(=O)COc3ccccc32)cc1	inactive	–
COC(=O)CN1C(=O)COc2ccc(S(=O)(=O)NCc3ccccc3)cc21	inconclusive: 25.9 µM [activator, partial curve, poor fit]	–
Cn1c(NCc2ccc(Cl)cc2)nc2ccccc21	inconclusive: 13 µM [activator, partial curve]	–
Cc1ccc(CSc2nc3ccsc3c(=O)n2Cc2ccccn2)cc1	inactive	–
CO/N=C/c1ccc(N2CCN(C(=O)c3ccc(F)cc3)CC2)c([N+](=O)[O-])c1	inconclusive: 20.6 µM [inhibitor, single point]	–
Cc1cccc2sc(NC(=O)C3CCCN(S(=O)(=O)c4cccc5nonc45)C3)nc12 (stereo not given)	inconclusive: 2.06 µM [inhibitor, full curve, poor fit]	–
COc1ccc(-n2c(O)c(C=NCC(c3ccco3)N3CCCC3)c3ccccc3c2=O)cc1OC (stereo not given)	inconclusive: 29.1 µM [inhibitor, single point]	–
Cc1ccccc1C(=O)N1CCN(c2ccc(NC(=O)c3cccs3)cc2)CC1	active: 9.2 µM	–
Cc1ccc(NC2Sc3ccccc3NC2=O)cc1 (stereo not given)	inconclusive: 4.61 µM [activator, full curve]	–
CSCCC(=O)N1CCCC(N2CCN(c3cccc(C(F)(F)F)c3)CC2)C1 (stereo not given)	inactive	–
Fc1cccc(-n2cc(-c3ccccc3)c3c(=S)nc[nH]c32)c1	inconclusive: 20.6 µM [inhibitor, single point]	–
COc1cccc(NC(=O)CN2CCc3ccccc3C2)c1	inconclusive: 5.01 µM [inhibitor, single point]	–
CCn1c(CN2CCOCC2)nnc1SCC(=O)Nc1cccc(C)c1	inactive	–
S=C(Nc1ccccc1)N1CCN(C/C=C/c2ccccc2)CC1	inconclusive: 20.6 µM [inhibitor, partial curve, poor fit]	–
CCOc1nc(Nc2ccc([N+](=O)[O-])cc2)nc(NC(C)(C)C)n1	inconclusive: 16.4 µM [inhibitor, partial curve]	–
Cc1nc(N)nc(-c2ccccc2O)n1	inconclusive: 32.6 µM [activator, partial curve, poor fit]	–
N#Cc1cc([N+](=O)[O-])ccc1NC(=O)COC(=O)C1CC2CCCC(C1)C2=O (stereo not given)	active: 9.2 µM	–
Cc1nc(N)ncc1C(=O)Nc1ccccc1	inconclusive: 1.3 µM [inhibitor, single point]	–
CCOc1cc(S(=O)(=O)NCc2ccc3c(c2)OCO3)c(C)cc1C	inactive	–
Cn1c(N)c(C(=O)COC(=O)C23CC4CC(CC(C4)C2)C3)c(=O)n(C)c1=O	inconclusive: 29.1 µM [inhibitor, single point]	–
O=C(CCNC(=O)c1ccccc1Cl)NCCC1=CCCCC1	inactive	–

Compound	Potency	activity change, negative = inhibition
Cc1ccc(S(=O)(=O)N2CCN(C(=O)CN3C(=O)NC(C)(c4ccc(Cl)cc4)C3=O)CC2)c(C)c1 (stereo not given)	inconclusive: 9.2 µM [inhibitor, single point]	–
Cc1ccc(OCCC(=O)Nc2ccc(S(=O)(=O)N3CCCC3)cc2)cc1	inconclusive: 20.6 µM [inhibitor, single point]	–
Cc1cc(C)n(C(=O)c2cc3c(s2)CCCC3)n1	inconclusive: 13 µM [activator, partial curve, poor fit]	–
O=C(Nc1ccnc(-c2cccnc2)n1)c1ccc(Cl)c(Cl)c1	inconclusive: 4.11 µM [activator, partial curve, poor fit]	–
CCN(C(=O)c1cn(C)c(=O)c2cc(OC)c(OC)cc12)c1ccccc1C	inactive	–
COc1cc(SC)ccc1C(=O)Nc1ncc(C)s1	inconclusive: 0.326 µM [activator, partial curve, poor fit]	–
Cc1oc(-c2cccc(Cl)c2)nc1CN1CCCC(C(=O)NCc2ccco2)C1 (stereo not given)	inconclusive: 7.08 µM [inhibitor, partial curve, poor fit]	–
CCOC(=O)c1ccc2c(c1)nc(SCc1cn3ccsc3n1)n2CC	inactive	–
O=C(NNc1cccc(Cl)n1)c1c(Cl)cccc1Cl	inactive	–
CCOC(=O)c1csc(NC(=O)c2ccc(S(=O)(=O)N3CCCC3)cc2)n1	inconclusive: 4.61 µM [inhibitor, single point]	–
Cc1ccc(S(=O)c2ccc(NC(=O)C3CC3)cc2C#N)cc1 (stereo not given)	inconclusive: 10.3 µM [inhibitor, partial curve]	–
CCc1ccc(NC(=O)COC(=O)/C=C/c2c(C)nn(C3CCS(=O)(=O)C3)c2Cl)cc1 (stereo not given)	inactive	–
Cc1cc(-c2ccccc2)n[nH]1	inconclusive: 23.1 µM [activator, partial curve, poor fit]	–
O=C1OC2(c3ccccc31)c1cc(I)c(O)c(I)c1Oc1c2cc(I)c(O)c1I	inactive	–
Cc1cc(=O)oc2c(C)c(OC(C)C(=O)NCCCN3CCOCC3)ccc12 (stereo not given)	inactive	–
CC(=O)Nc1ccccc1/C=C/c1ccc2c(C)ccc(O)c2n1	inactive	–
COc1ccc(CCNC(=O)c2ccc(Cl)cc2)cc1OC	inactive	–
C=CCn1c(=O)c2ccccc2n2c(SC(C)C(=O)Nc3nc(-c4ccccc4)cs3)nnc12 (stereo not given)	inconclusive: 25.9 µM [inhibitor, single point]	–
CC(=O)Nc1ccc2c(c1)CCCC2=O	inconclusive: 29.1 µM [activator, single point]	–
Cc1cc(SCC(=O)NCCC2=CCCCC2)nc2ccccc12	inconclusive: 0.231 µM [inhibitor, single point]	–
CSC1=NCCN1C(=O)c1ccc(Br)o1	inconclusive: 20.6 µM [activator, single point]	–
COC(=O)c1c(C(=O)OC)c2ccccn2c1C(=O)c1ccc([N+](=O)[O-])cc1	inconclusive: 29.1 µM [inhibitor, single point]	–
CC(=O)c1cccc(OCC(=O)Nc2cc(Cl)ccc2-n2cncn2)c1	inconclusive: 4.61 µM [activator, full curve, poor fit]	–
Cc1ccc(N=CC2=C(O)CC(C)(C)CC2=O)nc1	inactive	–

A draw from above in order of length of the SMILES, rising.
Compound	Potency	activity change, negative = inhibition
O=C(NNc1cccc(Cl)n1)c1c(Cl)cccc1Cl	inactive	–
CCn1c(CN2CCOCC2)nnc1SCC(=O)Nc1cccc(C)c1	inactive	–
Cc1ccc(OCCC(=O)Nc2ccc(S(=O)(=O)N3CCCC3)cc2)cc1	inconclusive: 20.6 µM [inhibitor, single point]	–

The list continues:

Compound	Potency	activity change, negative = inhibition
COc1ccc(CNC(=O)CN(Cc2ccccc2)S(=O)(=O)c2ccc(Cl)cc2)cc1	inconclusive: 23.1 µM [inhibitor, single point]	–
COCCCNC(=O)c1c[nH]c2ccc(S(=O)(=O)N3CCC4(CC3)OCCO4)cc2c1=O	inconclusive: 32.6 µM [inhibitor, partial curve, poor fit]	–
O=C(Nc1nnc(S(=O)(=O)Nc2ccccc2)s1)c1ccccc1Cl	inactive	–
COc1ccc(C2c3c(C)nn(-c4ccccc4)c3NC(=O)N2c2ccccc2)cc1 (stereo not given)	inconclusive: 25.9 µM [inhibitor, partial curve, poor fit]	–
COc1ccc(OC)c(NC(=O)c2nc3ccccc3s2)c1	inconclusive: 20.6 µM [activator, single point]	–
COc1ccc(NC2CCCN(C(=O)c3cccs3)C2)cc1 (stereo not given)	inconclusive: 18.3 µM [activator, single point]	–
CCN(CC)c1ccc(/C=C2\C(=O)N(c3nnc(C)c(=O)[nH]3)N=C2C)cc1	inconclusive: 5.8 µM [activator, partial curve, poor fit]	–
O=C(COC(=O)CCc1nc2ccccc2c(=O)[nH]1)NC1CCS(=O)(=O)C1 (stereo not given)	–	inconclusive: 5.02% [activator]
CC(=O)Nc1ccc(NC(=O)CCCSc2nc3ccccc3s2)cc1	inactive	–
O=C(N/N=C/c1cn(-c2ccccc2)nc1-c1ccccc1)c1ccco1	inactive	–
CCOc1cc(CNc2ccc3c(c2)OCCO3)cc(Br)c1OCC	inconclusive: 29.1 µM [activator, single point]	–
CCC(=O)Nc1nnc(CCc2ccccc2)s1	inconclusive: 23.1 µM [activator, partial curve, poor fit]	–
Cc1nn(C)c(C)c1CN(C(=O)C1CCC(=O)N(C2CCCCCC2)C1)C(C)C (stereo not given)	inconclusive: 20.6 µM [activator, partial curve]	–
Cc1cc(=O)oc2cc(OC(=O)CCCCCN3C(=O)c4ccccc4C3=O)ccc12	inactive	–
CCOC(=O)c1c2c(c(=S)n(-c3ccccc3)c1N)CCC2	inconclusive: 29.1 µM [inhibitor, single point]	–
Cc1cccc(N=Nc2c(O)[nH]c3ccc(F)cc23)c1	inconclusive: 29.1 µM [activator, single point]	–
CC(=O)NCCc1nc2cc(NC(=O)c3ccccc3Cl)ccc2n1C	inconclusive: 20.6 µM [activator, partial curve]	–
O=C(/C=C/c1ccccc1)CC(O)(c1ccccc1)C(F)(F)F (stereo not given)	inconclusive: 29.1 µM [inhibitor, single point]	–
Clc1ccc(CSc2nnc3ccccn23)c(Cl)c1	inconclusive: 20.6 µM [activator, partial curve]	–
CC(CCN1C(Nc2ccccc2)=NC[C@@H]1Cc1ccccc1)c1ccccc1 (stereo not given in full)	inconclusive: 4.61 µM [activator, single point]	–
O=C1CCc2cc(S(=O)(=O)Nc3ccc(F)cc3)cc3c2N1CC3	inconclusive: 7.3 µM [activator, single point]	–
Cc1cc(N)ccc1N=Nc1c(C)n(C)n(-c2ccccc2)c1=O	inconclusive: 23.1 µM [activator, partial curve]	–

From PubChem BioAssay AID504467 (National Center for Advancing Translational Sciences (NCATS), 2011)
